Residue numbers refer to the chain shown, from its start. Numbers in names are those of the source. Results are given in words; binding and its absence hold for the method and conditions named. In cells and extracts the contact can be indirect. A result given as binding can be weak or reduced; the word gives no strength. Sequences can lack the tags named with a protein. Blank lines part the entries; values can stand above or below the binder they belong to.
What was measured:
Experiment in all cases: co-IP; FLAG- and V5-tagged proteins co-expressed in HEK293T cells; lysed 48 h after transfection in IP buffer (1% Triton X-100, 10% glycerol, 50 mM Tris-HCl pH 7.4, 150 mM NaCl, 1 mM dithiothreitol, 1 mM EDTA); precipitated with anti-FLAG antibody; western blot with anti-V5 (or anti-A subunit) antibody
[1] = target: FLAG-tagged a3N (amino-terminal half of a3, amino acids 1-386) (UniProt Q9JHF5)
[2] = target: FLAG-a3N deletion mutant 1-213 (UniProt Q9JHF5)
[3] = target: FLAG-a3N deletion mutant 1-315 (UniProt Q9JHF5)
[4] = target: FLAG-tagged V-ATPase a3 subunit (full-length) (UniProt Q9JHF5)
[5] = target: FLAG-a3N deletion mutant 1-134 (UniProt Q9JHF5)

Sequences of proteins named here, by UniProt entry; tags and fusion partners are left off. A change or cut given only in a name is not applied to a line headed by its entry.
UniProt Q9JHF5: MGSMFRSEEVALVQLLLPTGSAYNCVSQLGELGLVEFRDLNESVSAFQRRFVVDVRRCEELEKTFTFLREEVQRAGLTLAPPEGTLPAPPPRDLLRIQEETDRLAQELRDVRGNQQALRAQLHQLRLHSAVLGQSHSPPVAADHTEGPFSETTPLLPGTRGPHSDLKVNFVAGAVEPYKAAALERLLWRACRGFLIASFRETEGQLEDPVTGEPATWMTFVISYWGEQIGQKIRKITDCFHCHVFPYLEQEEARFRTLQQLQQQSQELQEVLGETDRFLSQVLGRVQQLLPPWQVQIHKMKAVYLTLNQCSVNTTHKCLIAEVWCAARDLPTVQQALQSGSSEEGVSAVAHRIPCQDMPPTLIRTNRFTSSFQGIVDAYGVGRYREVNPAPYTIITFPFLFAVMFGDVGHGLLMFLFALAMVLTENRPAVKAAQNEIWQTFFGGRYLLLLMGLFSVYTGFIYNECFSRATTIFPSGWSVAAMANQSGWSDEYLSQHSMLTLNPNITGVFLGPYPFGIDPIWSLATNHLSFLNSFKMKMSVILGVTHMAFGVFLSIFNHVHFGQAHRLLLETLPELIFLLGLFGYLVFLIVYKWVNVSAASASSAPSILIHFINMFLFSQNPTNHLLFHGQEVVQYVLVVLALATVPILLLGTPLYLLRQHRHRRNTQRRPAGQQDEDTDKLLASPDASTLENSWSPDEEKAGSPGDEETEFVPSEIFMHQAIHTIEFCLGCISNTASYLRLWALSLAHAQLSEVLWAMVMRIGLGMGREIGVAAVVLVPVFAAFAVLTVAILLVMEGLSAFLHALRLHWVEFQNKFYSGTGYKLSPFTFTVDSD

- binding [1]: binds
B1: V5-Mon1A deletion mutant 1-288 (domain or fragment, UniProt Q6PDG8 1-288)
chain: MAADMQRKRSSECPEGTLAPSNGQSVERAESPTPGLTQGTEPGAGQEGAMFVHTRSYEDLTELEDREASGDSPKECVGSPPPLATDMRQISQDFSELSTQLTGVARDLQEEMLPGSSEDWPEPQGAAGRGAATEPSQEGSTEGEEEDATEAWRLHQKHVFVLSEAGKPVYSRYGSEEALSSTMGVMVALVSFLEADKNAIRSIHADGYKVVFVRRSPLVLVAVARTRQSAQELAQELLYIYYQILSLLTGAQLSHIFQQKQNYDLRRLLSGSERITDNLLQLMARDPS

- binding [1]: binds
B2: V5-Mon1A deletion mutant 1-266 (domain or fragment, UniProt Q6PDG8 1-266)
chain: MAADMQRKRSSECPEGTLAPSNGQSVERAESPTPGLTQGTEPGAGQEGAMFVHTRSYEDLTELEDREASGDSPKECVGSPPPLATDMRQISQDFSELSTQLTGVARDLQEEMLPGSSEDWPEPQGAAGRGAATEPSQEGSTEGEEEDATEAWRLHQKHVFVLSEAGKPVYSRYGSEEALSSTMGVMVALVSFLEADKNAIRSIHADGYKVVFVRRSPLVLVAVARTRQSAQELAQELLYIYYQILSLLTGAQLSHIFQQKQNYDLR

- binding [1]: binds
B3: V5-Mon1A deletion mutant 117-556 (domain or fragment, UniProt Q6PDG8 117-556)
chain: SEDWPEPQGAAGRGAATEPSQEGSTEGEEEDATEAWRLHQKHVFVLSEAGKPVYSRYGSEEALSSTMGVMVALVSFLEADKNAIRSIHADGYKVVFVRRSPLVLVAVARTRQSAQELAQELLYIYYQILSLLTGAQLSHIFQQKQNYDLRRLLSGSERITDNLLQLMARDPSFLMGAARCLPLAAAVRDTVSASLQQARARSLVFSILLAHNQLVALVRRKDQFLHPIDLHLLFNLISSSSSFREGEAWTPVCLPKFNAAGFFHAHISYLEPDTDLCLLLISTDREDFFAVSDCRRRFQERLRKRGTHLALREALRTPYYSVAQVGIPDLRHFLYKSKSSGLFTSPEIEAPYSSEEEQERLLGLYQYLHSRAHNASRPLKTIYYTGPNENLLAWVTGAFELYMCYSPLGTKASAVSAIHKLMRWIRKEEDRLFILTPLTY

- binding [1]: binds
B4: V5-Ccz1 deletion mutant 1-250 (domain or fragment, UniProt Q8C1Y8 1-250)
chain: MAAAAAGPGAWAAQEKQFPPALLSFFIYNPRFGPREGEEENKILFYHPNEVEKNEKIRNVGLCEAIVQFTRTFSPSKPAKSLHTQKNRQFFNEPEENFWMVMVVRNPIIEKQSKDGKAVVEYQEEELLDKVYSSVLQQCYSMYKLFNGTFLKAMEDGGVKLLKERLEKFFHRYLQTLHLQSCDLLDIFGGISFFPLDKMTYLKIQSFINRMEESLSVVKYTAFLYNDQLIWSGLEQDDMRILYKYLTTSL

- binding [1]: binds
B5: V5-Mon1A deletion mutant 97-556 (domain or fragment, UniProt Q6PDG8 97-556)
chain: LSTQLTGVARDLQEEMLPGSSEDWPEPQGAAGRGAATEPSQEGSTEGEEEDATEAWRLHQKHVFVLSEAGKPVYSRYGSEEALSSTMGVMVALVSFLEADKNAIRSIHADGYKVVFVRRSPLVLVAVARTRQSAQELAQELLYIYYQILSLLTGAQLSHIFQQKQNYDLRRLLSGSERITDNLLQLMARDPSFLMGAARCLPLAAAVRDTVSASLQQARARSLVFSILLAHNQLVALVRRKDQFLHPIDLHLLFNLISSSSSFREGEAWTPVCLPKFNAAGFFHAHISYLEPDTDLCLLLISTDREDFFAVSDCRRRFQERLRKRGTHLALREALRTPYYSVAQVGIPDLRHFLYKSKSSGLFTSPEIEAPYSSEEEQERLLGLYQYLHSRAHNASRPLKTIYYTGPNENLLAWVTGAFELYMCYSPLGTKASAVSAIHKLMRWIRKEEDRLFILTPLTY

- binding [1]: binds
B6: V5-Mon1A deletion mutant 117-266 (domain or fragment, UniProt Q6PDG8 117-266)
chain: SEDWPEPQGAAGRGAATEPSQEGSTEGEEEDATEAWRLHQKHVFVLSEAGKPVYSRYGSEEALSSTMGVMVALVSFLEADKNAIRSIHADGYKVVFVRRSPLVLVAVARTRQSAQELAQELLYIYYQILSLLTGAQLSHIFQQKQNYDLR

- binding [1]: binds
B7: V5-Ccz1 deletion mutant 38-480 (domain or fragment, UniProt Q8C1Y8 38-480)
chain: EEENKILFYHPNEVEKNEKIRNVGLCEAIVQFTRTFSPSKPAKSLHTQKNRQFFNEPEENFWMVMVVRNPIIEKQSKDGKAVVEYQEEELLDKVYSSVLQQCYSMYKLFNGTFLKAMEDGGVKLLKERLEKFFHRYLQTLHLQSCDLLDIFGGISFFPLDKMTYLKIQSFINRMEESLSVVKYTAFLYNDQLIWSGLEQDDMRILYKYLTTSLFPRHIEPELAGRDSPVRAEMPGNLQHYGRFLTGPLNLNDPEAKCRFPKIFVNTDDTYEELHLIVYKAMSAAVCFMIDASTPLTLDFCRRLDSIVGPQLTVLASDICEQFNINKRISGSEKEPQFKFIYFNHMNLAEKSTIHMRKTPSVSLTSVHPDLMKILGDINSDFTRADEDEEIIVKAMSDYWVVGKKSDQRELYVILSQKNANLIEVNEEVKKLCATQFNNIFFLD

- binding [1]: binds
B8: V5-Ccz1 deletion mutant 38-250 (domain or fragment, UniProt Q8C1Y8 38-250)
chain: EEENKILFYHPNEVEKNEKIRNVGLCEAIVQFTRTFSPSKPAKSLHTQKNRQFFNEPEENFWMVMVVRNPIIEKQSKDGKAVVEYQEEELLDKVYSSVLQQCYSMYKLFNGTFLKAMEDGGVKLLKERLEKFFHRYLQTLHLQSCDLLDIFGGISFFPLDKMTYLKIQSFINRMEESLSVVKYTAFLYNDQLIWSGLEQDDMRILYKYLTTSL

- binding [1]: binds weakly
B9: V5-Mon1A deletion mutant 137-556 (domain or fragment, UniProt Q6PDG8 137-556)
chain: QEGSTEGEEEDATEAWRLHQKHVFVLSEAGKPVYSRYGSEEALSSTMGVMVALVSFLEADKNAIRSIHADGYKVVFVRRSPLVLVAVARTRQSAQELAQELLYIYYQILSLLTGAQLSHIFQQKQNYDLRRLLSGSERITDNLLQLMARDPSFLMGAARCLPLAAAVRDTVSASLQQARARSLVFSILLAHNQLVALVRRKDQFLHPIDLHLLFNLISSSSSFREGEAWTPVCLPKFNAAGFFHAHISYLEPDTDLCLLLISTDREDFFAVSDCRRRFQERLRKRGTHLALREALRTPYYSVAQVGIPDLRHFLYKSKSSGLFTSPEIEAPYSSEEEQERLLGLYQYLHSRAHNASRPLKTIYYTGPNENLLAWVTGAFELYMCYSPLGTKASAVSAIHKLMRWIRKEEDRLFILTPLTY

- binding [1]: binds
B10: V5-Ccz1 deletion mutant 20-480 (domain or fragment, UniProt Q8C1Y8 20-480)
chain: PALLSFFIYNPRFGPREGEEENKILFYHPNEVEKNEKIRNVGLCEAIVQFTRTFSPSKPAKSLHTQKNRQFFNEPEENFWMVMVVRNPIIEKQSKDGKAVVEYQEEELLDKVYSSVLQQCYSMYKLFNGTFLKAMEDGGVKLLKERLEKFFHRYLQTLHLQSCDLLDIFGGISFFPLDKMTYLKIQSFINRMEESLSVVKYTAFLYNDQLIWSGLEQDDMRILYKYLTTSLFPRHIEPELAGRDSPVRAEMPGNLQHYGRFLTGPLNLNDPEAKCRFPKIFVNTDDTYEELHLIVYKAMSAAVCFMIDASTPLTLDFCRRLDSIVGPQLTVLASDICEQFNINKRISGSEKEPQFKFIYFNHMNLAEKSTIHMRKTPSVSLTSVHPDLMKILGDINSDFTRADEDEEIIVKAMSDYWVVGKKSDQRELYVILSQKNANLIEVNEEVKKLCATQFNNIFFLD

- binding [2]: binds
- binding [3]: binds
- binding [4]: binds
- binding [1]: binds
- binding [5]: binds
B11: V5-tagged Mon1A (protein, UniProt Q6PDG8 1-556)
chain: MAADMQRKRSSECPEGTLAPSNGQSVERAESPTPGLTQGTEPGAGQEGAMFVHTRSYEDLTELEDREASGDSPKECVGSPPPLATDMRQISQDFSELSTQLTGVARDLQEEMLPGSSEDWPEPQGAAGRGAATEPSQEGSTEGEEEDATEAWRLHQKHVFVLSEAGKPVYSRYGSEEALSSTMGVMVALVSFLEADKNAIRSIHADGYKVVFVRRSPLVLVAVARTRQSAQELAQELLYIYYQILSLLTGAQLSHIFQQKQNYDLRRLLSGSERITDNLLQLMARDPSFLMGAARCLPLAAAVRDTVSASLQQARARSLVFSILLAHNQLVALVRRKDQFLHPIDLHLLFNLISSSSSFREGEAWTPVCLPKFNAAGFFHAHISYLEPDTDLCLLLISTDREDFFAVSDCRRRFQERLRKRGTHLALREALRTPYYSVAQVGIPDLRHFLYKSKSSGLFTSPEIEAPYSSEEEQERLLGLYQYLHSRAHNASRPLKTIYYTGPNENLLAWVTGAFELYMCYSPLGTKASAVSAIHKLMRWIRKEEDRLFILTPLTY

- binding [4]: binds
B12: V5-Mon1A G166P/K167D (PD) mutant (protein, UniProt Q6PDG8 1-556)
chain: B11 chain with G166P, K167D

- binding [4]: binds
B13: V5-Mon1A N262W/D264A/R266A (WAA) mutant (protein, UniProt Q6PDG8 1-556)
chain: B11 chain with N262W, D264A, R266A

- binding [1]: binds
B14: V5-Ccz1 deletion mutant 20-250 (domain or fragment, UniProt Q8C1Y8 20-250)
chain: PALLSFFIYNPRFGPREGEEENKILFYHPNEVEKNEKIRNVGLCEAIVQFTRTFSPSKPAKSLHTQKNRQFFNEPEENFWMVMVVRNPIIEKQSKDGKAVVEYQEEELLDKVYSSVLQQCYSMYKLFNGTFLKAMEDGGVKLLKERLEKFFHRYLQTLHLQSCDLLDIFGGISFFPLDKMTYLKIQSFINRMEESLSVVKYTAFLYNDQLIWSGLEQDDMRILYKYLTTSL

- binding [1]: binds weakly
B15: V5-Mon1A deletion mutant 1-246 (domain or fragment, UniProt Q6PDG8 1-246)
chain: MAADMQRKRSSECPEGTLAPSNGQSVERAESPTPGLTQGTEPGAGQEGAMFVHTRSYEDLTELEDREASGDSPKECVGSPPPLATDMRQISQDFSELSTQLTGVARDLQEEMLPGSSEDWPEPQGAAGRGAATEPSQEGSTEGEEEDATEAWRLHQKHVFVLSEAGKPVYSRYGSEEALSSTMGVMVALVSFLEADKNAIRSIHADGYKVVFVRRSPLVLVAVARTRQSAQELAQELLYIYYQILS
